From article PMC5805373 come the findings set out here.

Sequences of proteins named here, by UniProt entry; tags and fusion partners are left off.
UniProt P22561: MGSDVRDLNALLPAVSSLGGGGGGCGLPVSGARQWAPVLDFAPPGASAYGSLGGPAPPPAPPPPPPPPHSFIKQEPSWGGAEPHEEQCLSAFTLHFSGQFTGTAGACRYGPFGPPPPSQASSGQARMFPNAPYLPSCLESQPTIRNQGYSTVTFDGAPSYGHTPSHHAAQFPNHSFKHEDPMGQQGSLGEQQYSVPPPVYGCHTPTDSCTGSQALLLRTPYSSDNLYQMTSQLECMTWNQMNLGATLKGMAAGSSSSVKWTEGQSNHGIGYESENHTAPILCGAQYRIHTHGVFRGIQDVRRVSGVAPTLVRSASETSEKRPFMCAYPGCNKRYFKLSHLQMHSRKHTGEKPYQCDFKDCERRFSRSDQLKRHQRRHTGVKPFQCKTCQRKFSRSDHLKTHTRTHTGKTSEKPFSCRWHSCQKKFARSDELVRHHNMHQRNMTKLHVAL
UniProt P23813: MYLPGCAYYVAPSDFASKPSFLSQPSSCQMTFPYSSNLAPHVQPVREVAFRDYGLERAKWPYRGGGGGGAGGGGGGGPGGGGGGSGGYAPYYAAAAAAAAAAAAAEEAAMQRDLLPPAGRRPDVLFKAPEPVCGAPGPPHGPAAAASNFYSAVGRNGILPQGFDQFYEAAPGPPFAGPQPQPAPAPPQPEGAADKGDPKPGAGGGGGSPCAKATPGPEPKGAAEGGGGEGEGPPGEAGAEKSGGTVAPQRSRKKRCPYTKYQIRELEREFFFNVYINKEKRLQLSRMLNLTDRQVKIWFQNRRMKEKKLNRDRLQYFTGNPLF

Sequences and labels used below:
B1: Sall1 (protein, UniProt Q9ER74 1-1322)
chain: MSRRKQAKPQHFQSDPEVASLPRRDGDTEKGQPSRPTKSKDAHVCGRCCAEFFELSDLLLHKKSCTKNQLVLIVNESPASPAKTFPPGPSLNDPDDQMKDAANKADQEDCSDLSEPKGLDREESMEVEVPVATTTTTTTGGSGGSGGSTLSGVTNITTPSCHSGCSSGTSAITTSLPQLGDLTTLGNFSVINSNVIIENLQSTKVAVAQFSQEARCGGASGGKLLISTLMEQLLALQQQQIHQLQLIEQIRHQILLLASQSADLPAAPSIPSQGTLRTSANPLTTLSSHLSQQLAVAAGLAQSLASQSANISGVKQLPHVQLPQSSSGTSIVPPSGGTSPNMSIVTAAVPTPSSEKVASNAGASHVSSPAVSASSSPAFAISSLLSPESNPLLPQPTPANAVFPTPLPNIATTAEDLNSLSALAQQRKSKPPNVTAFEAKSTSDEAFFKHKCRFCAKVFGSDSALQIHLRSHTGERPFKCNICGNRFSTKGNLKVHFQRHKEKYPHIQMNPYPVPEHLDNVPTSTGIPYGMSIPSEKPVTSWLDTKPVLPTLTTSVGLPLPPTLPSLTPFIKTEEPAPIPISHSAASPQGSVKSDSGAPDLATRNPSGVPEEVEGSAVPPFGGKGEESNMASSAVPTAGNSTLNSPVADGGPGGTTFTNPLLPLMSEQFKAKFPFGGLLDSAQASETSKLQQLVENIDKKATDPNECIICHRVLSCQSALKMHYRTHTGERPFKCKICGRAFTTKGNLKTHYSVHRAMPPLRVQHSCPICQKKFTNAVVLQQHIRMHMGGQIPNTPVPDNYPESMESDTGSFDEKNFDDLDNFSDENMEECPEGSIPDTPKSADASQDSLSSSPLPLEMSSIAALENQMKMINAGLAEQLQASLKSVENGSMEGDVLTNDSSSVGGDMESQSAGSPAISESTSSMQALSPSNSTQEFHKSPGMEEKPQRVGPGEFANGLSPTPVNGGALDLTSSHAEKIIKEDSLGILFPFRDRGKFKNTACDICGKTFACQSALDIHYRSHTKERPFICTVCNRGFSTKGNLKQHMLTHQMRDLPSQLFEPSSNLGPNQNSAVIPANSLSSLIKTEVNGFVHVSPQDSKDAPTSHVPQGPLSSSATSPVLLPALPRRTPKQHYCNTCGKTFSSSSALQIHERTHTGEKPFACTICGRAFTTKGNLKVHMGTHMWNSTPARRGRRLSVDGPMTFLGGNPVKFPEMFQKDLAARSGSGDPSSFWNQYTAALSNGLAMKANEISVIQNGGIPPIPGSLGSGSSPISGLTGNVEKLGNSEPSAPLAGLEKMASSENGTNFRFTRFVEDSKEIVTS

These are yes or no findings as the source states them, for the method shown. In cells and extracts the contact can be indirect. Some entries that bind do so weakly or less than the wild type.

This experiment has as its target T1, Six2 (mouse (endogenous in E16.5 kidney)) (UniProt Q62232).
T1 sequence: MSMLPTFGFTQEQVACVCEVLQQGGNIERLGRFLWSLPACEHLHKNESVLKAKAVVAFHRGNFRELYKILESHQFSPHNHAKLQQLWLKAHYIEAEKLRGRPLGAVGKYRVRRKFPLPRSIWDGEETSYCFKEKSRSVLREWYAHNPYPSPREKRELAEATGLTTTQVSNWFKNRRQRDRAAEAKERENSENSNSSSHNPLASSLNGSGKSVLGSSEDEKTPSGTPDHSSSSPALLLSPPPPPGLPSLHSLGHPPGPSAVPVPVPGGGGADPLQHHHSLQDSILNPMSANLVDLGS
In words: co-IP; Six2 antibody (or normal rabbit IgG) crosslinked to Dynabeads Protein G; nuclear extracts of E16.5 whole mouse kidneys incubated overnight with beads at 4°C; washed 5x with TBS+0.1% Triton X-100; eluted with 0.1M Glycine-HCl, pH 2.9; Western blot.
For Wt1 (from UniProt P22561 1-449), the binding entry is on record as “binds”. To Hoxd11 (from UniProt P23813 1-323) belongs “binds”; to B1, “no binding”.
